PubChem BioAssay AID504808 – Drosophila RNAi Screening Center – 2011
The screen tested about 21,000 reagents; shown is a random part of those that have a named target and a result. In the full data, 18 (0.084%) are marked active. 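Raw counts without plate normalisation, one of two replicates; the ratio scores behind the calls were not deposited.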 Names joined by + are all predicted targets of the reagent. The record does not give: the amount of reagent, the time to read-out.

Purpose: 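Genes whose loss lifts activity of an E2F-responsive reporter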 (primary screen)
System: Drosophila S2 cells
Reagent: long dsRNA against Drosophila genes
Measurement: 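Dual luciferase plate measurements; E2F-specific signal taken as firefly over Renilla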
Scale: E2F firefly: higher = more E2F reporter activity; Renilla normaliser: higher = more normaliser reporter signal
Rule for the call: 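Called active if the normalised E2F reporter went up by over 50%; the cutoff is arbitrary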

CG4269 [DRSC04457]
- E2F firefly, rep 1: 1.05e5
- Renilla normaliser, rep 1: 4056
- activity call: inactive

bumpel [DRSC16100]
- E2F firefly, rep 1: 1.47e5
- Renilla normaliser, rep 1: 6434
- activity call: inactive

sw + Sdic4 + Sdic3 + 2 more [DRSC20696]
- E2F firefly, rep 1: 1.41e5
- Renilla normaliser, rep 1: 6373
- activity call: inactive

Arp10 [DRSC19448]
- E2F firefly, rep 1: 1.50e5
- Renilla normaliser, rep 1: 6605
- activity call: inactive

CG12716 [DRSC19493]
- E2F firefly, rep 1: 65865
- Renilla normaliser, rep 1: 4332
- activity call: inactive

CG5516 [DRSC15826]
- E2F firefly, rep 1: 1.05e5
- Renilla normaliser, rep 1: 4880
- activity call: inactive

Trpgamma [DRSC03626]
- E2F firefly, rep 1: 91779
- Renilla normaliser, rep 1: 4326
- activity call: inactive

CG4042 [DRSC11751]
- E2F firefly, rep 1: 1.43e5
- Renilla normaliser, rep 1: 7252
- activity call: inactive

CG31313 [DRSC13044]
- E2F firefly, rep 1: 85852
- Renilla normaliser, rep 1: 2460
- activity call: inactive

Reformatted: results already given.
gene | amplicon | E2F firefly, rep 1 | Renilla normaliser, rep 1 | activity call
Arp10 | DRSC19448 | 1.50e5 | 6605 | inactive
CG12716 | DRSC19493 | 65865 | 4332 | inactive
CG5516 | DRSC15826 | 1.05e5 | 4880 | inactive

Further results follow.
CG17026 [DRSC10237]
- E2F firefly, rep 1: 1.58e5
- Renilla normaliser, rep 1: 7189
- activity call: inactive

Nup133 [DRSC16150]
- E2F firefly, rep 1: 60775
- Renilla normaliser, rep 1: 3270
- activity call: inactive

CG11905 [DRSC09863]
- E2F firefly, rep 1: 88072
- Renilla normaliser, rep 1: 3892
- activity call: inactive

CG4424 [DRSC15576]
- E2F firefly, rep 1: 60681
- Renilla normaliser, rep 1: 3543
- activity call: inactive

Jhbp2 [DRSC12292]
- E2F firefly, rep 1: 1.14e5
- Renilla normaliser, rep 1: 5968
- activity call: inactive

CG10274 [DRSC09716]
- E2F firefly, rep 1: 68084
- Renilla normaliser, rep 1: 3421
- activity call: inactive

BthD [DRSC19395]
- E2F firefly, rep 1: 70471
- Renilla normaliser, rep 1: 4357
- activity call: inactive

CG5160 [DRSC02821]
- E2F firefly, rep 1: 1.64e5
- Renilla normaliser, rep 1: 5078
- activity call: inactive

CG8613 [DRSC07222]
- E2F firefly, rep 1: 2965
- Renilla normaliser, rep 1: 185
- activity call: inactive

HP4 [DRSC10958]
- E2F firefly, rep 1: 68233
- Renilla normaliser, rep 1: 3523
- activity call: inactive
